From PubChem BioAssay AID504648 (National Center for Advancing Translational Sciences (NCATS), 2011)
About 610 (0.16%) of roughly 390,000 compounds were called active. The inconclusive results got no clear call from the source; some entries with a clear call stand among them for comparison. The call rests on the fitted dose curve; in most records, active means well fitted inhibition curve with a large enough effect; inconclusive means small, poorly fitted or top-dose-only effect, or effect the other way, or another doubt; inactive means no such curve, though single readings can be large or run the other way. Potencies beside an inconclusive call are fits to weak or partial responses and may not hold up.

Assay: Nrf2 qHTS screen for inhibitors: counterscreen for cytotoxicity
Details: A549 ARE-Fluc cells, CellTiter-Fluor viability, 18-24 h; series mostly up to 46 µM
In short: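 Cytotoxicity counterscreen: CellTiter-Fluor fluorescence was measured in A549 ARE_Fluc cells after 18-24 h of compound exposure in a concentration series. The subsequent BugLite luminescent read reports ARE-luciferase activity.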
Potency means the concentration at half of the fitted maximal effect.

| SMILES | Potency |
| --- | --- |
| COc1ccc(C2CC(c3ccccc3)=NN2C(=O)CN2CCN(Cc3ccccc3)CC2)cc1 (stereo unspecified) | inconclusive: 16.4 µM [falling, single point] |
| CC1(C)Cc2c(sc3c2c(=N)n(Cc2ccco2)c(=O)n3Cc2ccc(Cl)cc2)CO1 | inactive |
| CCOc1ccc(CNCc2c(C(=O)O)n(Cc3ccc(C)cc3)c3cc(C)ccc23)cc1 | inconclusive: 20.6 µM [falling, single point] |
| CSc1ccccc1NC(=O)C1CC(c2ccccc2O)=NO1 (stereo unspecified) | inconclusive: 32.6 µM [activator, partial curve, poor fit] |
| CNc1ccc(C(=O)Oc2cc(O/N=[N+](\[O-])N(C)C)c([N+](=O)[O-])cc2[N+](=O)[O-])cc1 | inconclusive: 23.1 µM [falling, single point] |
| O=C(CN1C(=O)NC2(CCCC2)C1=O)NCCc1ccc(Cl)cc1Cl | inactive |
| CCCCn1nc(NC(=O)c2cccc(Cl)c2)c2cc3ccccc3nc21 | inactive |
| COc1cc2nc(C3CCC3)nc(N3CCN(c4ccccn4)CC3)c2cc1OC | inconclusive: 25.9 µM [falling, single point] |
| O=S(=O)(c1ccc(NC(=S)N/N=C/c2ccc(Oc3ccccc3)cc2)cc1)N1CCOCC1 | inactive |
| O=C1/C(=C/c2ccco2)Oc2c1ccc(O)c2CN1CCCCC1 | inactive |
| C/C(=N/OCC(=O)Nc1ccccc1)c1cccs1 | inactive |
| CCCOc1ccc2oc(=O)c3c(c2c1)CCCN3C(=O)CN1CCc2ccccc2C1 | inconclusive: 20.6 µM [falling, partial curve, poor fit] |
| COc1cc(-c2nc3ccc(N4CCN(C)CC4)cc3[nH]2)cc(OC)c1OC | inconclusive: 23.1 µM [falling, partial curve, poor fit] |
| CCNC(=O)c1nn(-c2ccccc2C)nc1CO | inactive |
| Cc1csc2nc(COc3ccccc3NC(=O)c3ccc(C(C)(C)C)cc3)cc(=O)n12 | inactive |
| Cc1nnsc1-c1nc2ccccc2[nH]1 | inactive |
| O=[N+]([O-])c1ccc(NCCN2CCOCC2)c([N+](=O)[O-])c1 | inconclusive: 23.1 µM [falling, single point] |
| CCN1CCN(S(=O)(=O)c2ccc(Cl)c(C(=O)Nc3ccc(OC(F)F)cc3)c2)CC1 | inactive |
| CC(Cc1ccccc1)=NNc1ccc([N+](=O)[O-])cc1[N+](=O)[O-] | inconclusive: 13 µM [falling, partial curve] |
| COc1ccc2nc(NC(=O)c3cccc(-c4cc5ccccc5oc4=O)c3)sc2c1 | inconclusive: 29.1 µM [falling, single point] |
| NC(=O)C1CCN(C(=O)CN(C2CCCCC2)S(=O)(=O)c2ccc(F)cc2)CC1 | inactive |
| O=C(N/N=C/c1ccc(O)cc1)c1cc(-c2ccccc2)nc2ccccc12 | inconclusive: 23.1 µM [falling, partial curve, poor fit] |

| SMILES | Potency |
| --- | --- |
| CC(=O)O[C@H]1[C@@H](O)[C@H](O)[C@H](Oc2c(O)c(C)c3c4c2[C@@H](C)CC[C@@H]4[C@@H](C)C[C@H]3C=C(C)C)O[C@H]1C | inactive |
| COc1ccc2oc3cc(C)[n+]([O-])c(-c4ccc(Br)cc4)c3c2c1 | inconclusive: 29.1 µM [falling, single point] |
| COc1ccc2nc(NN=C(C)c3ccccn3)cc(C)c2c1 | inconclusive: 11.6 µM [falling, partial curve] |
| CCN(C(=O)CSc1nnc(-c2cccs2)n1N)c1c(N)n(Cc2ccccc2)c(=O)[nH]c1=O | inactive |
| O=C(c1ccccc1)c1ccc2nc(-c3ccc(NC(=O)c4ccccc4F)cc3)[nH]c2c1 | inconclusive: 23.1 µM [falling, partial curve, poor fit] |
| O=C(c1cccs1)N1N=C(c2ccccc2)CC1c1ccc(O)cc1 (stereo unspecified) | inconclusive: 29.1 µM [falling, partial curve, poor fit] |
| c1cc(-c2sc(-c3ccncc3)c(-c3ccncc3)c2-c2ccncc2)ccn1 | inactive |
| CCCCN(CC)CCCNC(=O)c1cc2c(=O)[nH]c3ccccc3c2s1 | inconclusive: 29.1 µM [falling, single point] |
| Cc1c(C)c2ccc(OCC(=O)Nc3cccnc3)cc2oc1=O | inconclusive: 25.9 µM [falling, single point] |
| O=C1OCC(CO)(CO)N=C1NNc1cc(Cl)ccc1Cl | inconclusive: 29.1 µM [activator, single point] |
| CCCCc1ccc(Nc2nc(CCC)cc(=O)[nH]2)cc1 | inconclusive: 29.1 µM [falling, single point] |
| O=c1oc2cc(OCc3ccc(F)cc3F)ccc2cc1-c1ccccn1 | inactive |
| Cc1cc(C(C)(C)CC(C)(C)C)ccc1OCCOCC[N+](C)(C)Cc1ccccc1 | inconclusive: 16.4 µM [falling, single point] |
| Cc1cccn2c(=O)c(C=O)c(N3CCCCCC3)nc12 | inconclusive: 20.6 µM [falling, partial curve] |
| O=C(O)C(C(=O)/C=C/c1ccco1)=C1SCCS1 | inconclusive: 23.1 µM [falling, single point] |
| CC(=O)NC1=CC(=O)c2nonc2C1=O | active: 7.31 µM |
| CCC(c1nnnn1Cc1ccco1)N(CCc1ccccc1)Cc1cc2cc(C)ccc2[nH]c1=O (stereo unspecified) | inconclusive: 20.6 µM [falling, partial curve, poor fit] |
| O=C(O)c1ccccc1Nc1ccc([N+](=O)[O-])c2nonc12 | active: 18.4 µM |
| C=CCSc1nc2ccccc2n1C(=O)/C=C/c1ccc(OC)c(OC)c1 | inconclusive: 10.3 µM [falling, partial curve, poor fit] |
| CCc1ccc(-c2nc3c(=O)n(C)c(=O)nc-3n(CC)n2)cc1 | inconclusive: 20.6 µM [falling, single point] |
| O=C(NCCNc1ccc([N+](=O)[O-])cc1)c1cccc2c(Br)cccc12 | inconclusive: 23.1 µM [falling, partial curve, poor fit] |
| COC(=O)c1cnn(-c2nc(-c3ccccc3)cs2)c1N | inconclusive: 6.51 µM [falling, single point] |

| SMILES | Potency |
| --- | --- |
| CC12CCC(=O)N1C(C(=O)N1CCN(S(=O)(=O)c3ccc(Br)cc3Cl)CC1)CS2 (stereo unspecified) | inconclusive: 0.58 µM [activator, full curve, poor fit] |
| CCOC(=O)c1c(NC(=O)c2cccs2)sc(CC)c1-c1cccs1 | inconclusive: 3.26 µM [activator, single point] |
| O=C(O)c1cn(C2CC2)c2cc(N3CCN(S(=O)(=O)c4ccc5c(c4)OCCO5)CC3)c(F)cc2c1=O | inconclusive: 18.4 µM [falling, partial curve, poor fit] |
| Fc1ccccc1Cn1c(-c2ccccc2)nc2ccccc21 | inactive |
| Cc1cc2occ(CC(=O)N(C)CC(=O)Nc3cccc(F)c3)c2cc1C | inconclusive: 18.4 µM [falling, single point] |
| Cn1nc(C(F)(F)F)c(-c2ccc(Br)cc2)c1NC(=O)Nc1ccc(F)cc1F | inconclusive: 29.1 µM [falling, single point] |
| Cc1cccc(C)c1NC(=S)N/N=C/c1ccc(OCCC(C)C)cc1 | inconclusive: 32.6 µM [falling, partial curve, poor fit] |
| O=C(COC(=O)COc1ccccc1)NCCC1=CCCCC1 | inactive |
| CCCc1ccc(C(=O)NC(=O)c2ccccc2O)cc1 | inconclusive: 23.1 µM [falling, partial curve, poor fit] |
| Cc1cc(/C=N/NC(=O)c2cc3ccccc3o2)c(C)n1C | inconclusive: 25.9 µM [falling, partial curve, poor fit] |
| CC1CCCN(C(C(=O)NC2CCCCC2)c2cc3c(cc2[N+](=O)[O-])OCO3)C1 (stereo unspecified) | inconclusive: 29.1 µM [falling, single point] |
| CCOC(=O)c1c2c(n(Cc3ccccc3)c1C)C(=O)C(=O)c1ccccc1-2 | inconclusive: 25.9 µM [falling, single point] |
| O=[N+]([O-])c1ccc(Nc2c3ccccc3nc3ccccc23)cc1 | inconclusive: 29.1 µM [falling, partial curve, poor fit] |
| CN(CC(O)CON=C1c2ccccc2-c2ccccc21)S(=O)(=O)c1ccc(Br)cc1 (stereo unspecified) | inconclusive: 29.1 µM [falling, single point] |
| CCOc1ccccc1N1CC(c2nc3ccccc3n2CCOc2ccc(C(C)(C)C)cc2)CC1=O (stereo unspecified) | inconclusive: 29.1 µM [falling, single point] |
| CC(=O)c1cccc(NC(=O)CNC(=O)c2sc3ccccc3c2Cl)c1 | inconclusive: 16.4 µM [falling, partial curve, poor fit] |
| CCc1cc2c3c(c(=O)oc2cc1O)CCCC3 | inactive |
| CCOC(=O)c1ccc(NC(=O)c2ccc(CN3CCc4ccccc4C3)cc2)cc1 | inconclusive: 32.6 µM [falling, partial curve, poor fit] |
| Cc1ccc(CNc2nc3ccccc3n2C)o1 | inconclusive: 14.6 µM [activator, partial curve, poor fit] |
| CCN(CC(=O)NCc1ccc(Cl)cc1)C(=O)c1ccc2cc(OC)ccc2c1 | inconclusive: 14.6 µM [falling, partial curve, poor fit] |
| O=C(C1c2ccccc2Oc2ccccc21)N1CCN(c2ccc(Cl)cc2)CC1 | inconclusive: 29.1 µM [falling, single point] |
| Cc1ccc(C(=O)Nc2ccc3oc(-c4cccnc4)nc3c2)c(Cl)c1 | inactive |

Given tab-delimited: part of the list above.
SMILES	Potency
Cc1cc2occ(CC(=O)N(C)CC(=O)Nc3cccc(F)c3)c2cc1C	inconclusive: 18.4 µM [falling, single point]
Cn1nc(C(F)(F)F)c(-c2ccc(Br)cc2)c1NC(=O)Nc1ccc(F)cc1F	inconclusive: 29.1 µM [falling, single point]
